We go through 1 molecule from patent US20250034222A1, “IL-38 VARIANTS” (Monash University, priority 2021, published 2025).

These are yes or no findings as the source states them, for the method shown. Some entries that bind do so weakly or less than the wild type. Where a sequence is shown, tags or fusion partners need not be part of it.

Experiment [1] concerns the target WT IL-38 (residues 3-152, initiator methionine, C-terminal His6 tag) (human) (UniProt Q8WWZ1). Put plainly: analytical SEC after extended incubation.
Experiment [2] shares this target. Put plainly: analytical SEC after 16 h at 37 C, 0.165 mg/ml.

B1: WT IL-38 (residues 3-152, initiator methionine, C-terminal His6 tag) (ligand, not shown: small tags and cut ends)
chain: MSLPMARYYIIKYADQKALYTRDGQLLVGDPVADNCCAEKICILPNRGLARTKVPIFLGIQGGSRCLACVETEEGPSLQLEDVNIEELYKGGEEATRFTFFQSSSGSAFRLEAAAWPGWFLCGPAEPQQPVQLTKESEPSARTKFYFEQSW
In the case of B1, the binding entry in experiment [1] and in experiment [2] was “binds” in each case.
